Measured values taken from publication PMC7991749.
The exact form of at least one protein or probe is not confirmed. For part of these data: The comparison behind a weaker result is the experiment's own reference, which may not be listed here. For part of these data: At least one verdict was read from the data and is not stated in words by the source.

Columns and labels:
[1] = system: ctXPD (Chaetomium thermophilum); experiment: photo-cross-linking; details: 5 mM Mg2+, position 26 of strand 1 (B) = Fab(g)-dC, photo-cross-linking: 20 mM HEPES pH 7.5, 50 mM KCl, 5 mM MgCl2, 1 mM TCEP, UV 312 nm, recombinant protein, protein details: N-terminal His (pBADM11)
[2] = system: ctp44 (Chaetomium thermophilum); experiment: photo-cross-linking; details: 5 mM Mg2+, no ATP, no ctXPD; position 26 of strand 1 (B) = Fab(g)-dC; photo-cross-linking: 20 mM HEPES pH 7.5, 50 mM KCl, 5 mM MgCl2, 1 mM TCEP, UV 312 nm; recombinant protein; protein details: N-terminal His (pETM11); label: 5'-32P on strand 1

Sequence	binding result ([1]; three times less than ss probe, label: 5'-32P)	binding result [2]	binding result ([1]; no ATP, no ctp44, more effective than Fap-dC, label: 5'-32P on strand 1)
AAGCCTATGCCTACAGCATCCAGGGCGACGGTGCCGAGGATGACGATGAGCGCA (double strand) [ds-Fab(g)-dC 54/54]	binds more weakly	–	–
AAGCCTATGCCTACAGCATCCAGGGCGACGGTGCCGAGGATGACGATGAGCGCA / TGCGCTCATCGTCATCCTCGGCACCGTCGCCCTGGATG [fs-Fab(g)-dC 54/38]	–	binds	binds
